A short description of this series: self-splicing fitness, log relative to wild type (ln ratio); higher = more splicing; Tetrahymena group I intron in knt gene, E. coli kanamycin selection, DiMSum; sequences stand for … in CUCUCU…GGAGGGAAAAGUUAUCAGGCAUGCACCUGGUAGCUAGUCUUUAAACCAAUAGAUUGCAUCGGUUUAAAAGGCAAGACCGUCAAAUUGCGGGAAAGGGGUCAACAGCCGUUCAGUACCAAGUCUCAGGGGAAACUUUGAGAUGGCCUUGCAAAGGGUAUGGUAAUAAGCUGACGGACAUGGUCCUAACCACGCAGCCAAGUCCUAAGUCAACAGAUCUUCUGUUGAUAUGGAUGCAGUUCACAGACUAAAUGUCGGUCGGGGAAGAUGUAUUCUUCUCAUAAGAUAUAGUCGGACCUCUCCUUAAUGGGAGCUAGCGGAUGAAGUGAUGCAACACUGGAGCCGCUGGGAACUAAUUUGUAUGCGAAAGUAUAUUGAUUAGUUUUGGAGUACUCGUGGUCG
The procedure, abridged:
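Pooled colonies went to amplicon sequencing on an Illumina HiSeq 2500 after six replicate transformations. The plates were LB agar with 100 μg/mL carbenicillin, 50 μM IPTG and 0.2% rhamnose, with or without 25 μg/mL kanamycin, incubated overnight at 37°C or 30°C. The E. coli BL21(DE3) library had all eight P1ex-region intron nucleotides randomised, the intron placed in the knt kanamycin-resistance gene on pET-22b(+). DiMSum fitness is the error-weighted combination of replicate fold changes, kanamycin against none, normalised to wild type.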

± gives the uncertainty stated by the source. Many entries were measured with a wide error.

Regarding CUGAAGCAAUAUUACGAAGC, the “self-splicing fitness (ln)” value (30 °C) is -3.8 ± 0.72.

As for CGGAAGCAAUAUUACGCGCC, the “self-splicing fitness (ln)” value (30 °C) is -4.98 ± 0.73.

As for UCGUAGCAAUAUUACGAUAG, the “self-splicing fitness (ln)” value reads like this: (30 °C) -3.88 ± 1.1; (37 °C) -3.12 ± 0.38.

Consider UGUAAGCAAUAUUACGACCA, for which the “self-splicing fitness (ln)” value reads like this: (30 °C) 0.386 ± 0.12; (37 °C) 0.0758 ± 0.19.

Regarding CUUUAGCAAUAUUACGUGGC, the “self-splicing fitness (ln)” value (30 °C) is -4.32 ± 0.59.

For CGGAAGCAAUAUUACGACAC, the “self-splicing fitness (ln)” value (30 °C) was -2.62 ± 1.1.

Consider CCCUAGCAAUAUUACGCGCU, for which the “self-splicing fitness (ln)” value (30 °C) was -3.39 ± 0.74.

With GUUGAGCAAUAUUACGAAGU, the “self-splicing fitness (ln)” value is -3.28 ± 0.77 (30 °C) and -0.903 ± 0.51 (37 °C).

In the case of UUAUAGCAAUAUUACGAGGU, the “self-splicing fitness (ln)” value (30 °C) was -3.48 ± 0.52.

For the sequence UAGUAGCAAUAUUACGCUAC, the “self-splicing fitness (ln)” value (37 °C) was -1.71 ± 0.64.

For GUCUAGCAAUAUUACGAGGA, the “self-splicing fitness (ln)” value (37 °C) was -2.3 ± 0.78.

On to CUUGAGCAAUAUUACGAAGC, for which the “self-splicing fitness (ln)” value was -1.84 ± 0.58 (30 °C) and -0.806 ± 0.51 (37 °C).

In the case of CUUCAGCAAUAUUACGUCGA, the “self-splicing fitness (ln)” value by setting is: (30 °C) -4.35 ± 0.46; (37 °C) -2.95 ± 0.3.

GAUGAGCAAUAUUACGCGGG: the “self-splicing fitness (ln)” value (30 °C) was -3.55 ± 0.42 and the “self-splicing fitness (ln)” value (37 °C) was -3.59 ± 0.47.

In the case of GUCGAGCAAUAUUACGCCAG, the “self-splicing fitness (ln)” value (30 °C) was -3.39 ± 0.55.

Consider CAUGAGCAAUAUUACGAAGU, for which the “self-splicing fitness (ln)” value (37 °C) was -3.26 ± 0.73.

On to AUGCAGCAAUAUUACGUCAC, for which the “self-splicing fitness (ln)” value (30 °C) was -3.95 ± 0.59.

Regarding UAUUAGCAAUAUUACGAUGC, the “self-splicing fitness (ln)” value was -1.96 ± 1.2 (30 °C) and -2.48 ± 0.77 (37 °C).

For the sequence GGGGAGCAAUAUUACGCCAU, the “self-splicing fitness (ln)” value (30 °C) is -4.2 ± 0.52.

Consider GGAGAGCAAUAUUACGGAAC, for which, for the setting “30 °C”, the “self-splicing fitness (ln)” value was -2.53 ± 0.79.

CUUUAGCAAUAUUACGGCGA: the “self-splicing fitness (ln)” value (37 °C) was -1.99 ± 0.5.

Consider CAUUAGCAAUAUUACGGUCC, for which the “self-splicing fitness (ln)” value (30 °C) was -4.15 ± 0.6.

Consider CCCUAGCAAUAUUACGACAC, for which the “self-splicing fitness (ln)” value (30 °C) was -4.42 ± 0.59.

Take CUGUAGCAAUAUUACGAACA: the “self-splicing fitness (ln)” value (37 °C) was -2.63 ± 0.54.

For the sequence UCGUAGCAAUAUUACGCUGC, under “30 °C”, the “self-splicing fitness (ln)” value was -3.59 ± 0.52.

For the sequence AACGAGCAAUAUUACGAUCA, the “self-splicing fitness (ln)” value is, setting by setting: (30 °C) -2.1 ± 0.21; (37 °C) -1.41 ± 0.21.

UAGGAGCAAUAUUACGGUCG: the “self-splicing fitness (ln)” value was -2.16 ± 0.61 (30 °C) and -0.623 ± 0.54 (37 °C).

As for UGGCAGCAAUAUUACGAGGC, the “self-splicing fitness (ln)” value (37 °C) is -2.78 ± 0.53.

Regarding UGCAAGCAAUAUUACGUCGU, the “self-splicing fitness (ln)” value by setting is: (30 °C) -3.58 ± 0.22; (37 °C) -1.81 ± 0.17.

Turning to CUUUAGCAAUAUUACGCGAA, the “self-splicing fitness (ln)” value (30 °C) is -3.26 ± 0.55.

Regarding CUGCAGCAAUAUUACGGACC, the “self-splicing fitness (ln)” value was -5.3 ± 0.36 (30 °C) and -2.18 ± 0.31 (37 °C).

Consider GUGUAGCAAUAUUACGGGGC, for which the “self-splicing fitness (ln)” value (37 °C) was found to be 0.694 ± 1.1.

As to CUUUAGCAAUAUUACGCAGG, the “self-splicing fitness (ln)” value (37 °C) is -2.59 ± 0.62.

For GUUGAGCAAUAUUACGAUCG, the “self-splicing fitness (ln)” value (37 °C) was -1.74 ± 0.68.

GUUGAGCAAUAUUACGGUUU: the “self-splicing fitness (ln)” value (30 °C) is -4.2 ± 0.33 and the “self-splicing fitness (ln)” value (37 °C) was -2.73 ± 0.32.

With AUCGAGCAAUAUUACGUCAC, the “self-splicing fitness (ln)” value (30 °C) is -2.85 ± 0.64.

Turning to CGCGAGCAAUAUUACGGAGC, the “self-splicing fitness (ln)” value (30 °C) was -5.17 ± 1.

With UGCGAGCAAUAUUACGAAUA, the “self-splicing fitness (ln)” value runs as follows: (30 °C) -3.67 ± 0.61; (37 °C) -2.79 ± 0.74.

For the sequence UUAGAGCAAUAUUACGAAAC, the “self-splicing fitness (ln)” value (37 °C) was -1.89 ± 0.57.

Take GGUAAGCAAUAUUACGAAGA: the “self-splicing fitness (ln)” value reads like this: (30 °C) -2.94 ± 0.86; (37 °C) -0.758 ± 0.53.

UGAUAGCAAUAUUACGGGCC: the “self-splicing fitness (ln)” value (37 °C) is -2.18 ± 0.52.

As for GCGAAGCAAUAUUACGAGGC, the “self-splicing fitness (ln)” value (30 °C) was -4.45 ± 1.

Consider GUACAGCAAUAUUACGCCGA, for which the “self-splicing fitness (ln)” value (30 °C) is -4.27 ± 0.73.

As for CGAGAGCAAUAUUACGGACC, the “self-splicing fitness (ln)” value (37 °C) is -1.77 ± 0.54.

For UGAGAGCAAUAUUACGGAUA, the “self-splicing fitness (ln)” value is, setting by setting: (30 °C) -3.85 ± 0.73; (37 °C) -2.5 ± 0.26.

On to GCUGAGCAAUAUUACGCUUA, for which the “self-splicing fitness (ln)” value (37 °C) was -2.42 ± 0.62.

As for UCGGAGCAAUAUUACGUCAG, for the setting “30 °C”, the “self-splicing fitness (ln)” value was -2.42 ± 0.63.

As to CGGGAGCAAUAUUACGAGGC, the “self-splicing fitness (ln)” value reads like this: (30 °C) -4.57 ± 1; (37 °C) -1.92 ± 0.51.

As to UGAAAGCAAUAUUACGCCGC, the “self-splicing fitness (ln)” value reads like this: (30 °C) -2.52 ± 0.85; (37 °C) -2.16 ± 0.57.

Take CUGGAGCAAUAUUACGAGUC: the “self-splicing fitness (ln)” value (37 °C) is -1.85 ± 0.67.

For the origin of these results see the supplement of paper PMC7877785.
